Measurements taken from PMC8583188.
No constants are given. Whether binding was seen depends on the method and setting. Some results given as binding are weak or reduced against the parent protein; the word gives no strength. Where a sequence is shown, tags or fusion partners need not be part of it.

T1: GENOMES UNCOUPLED 1 (GUN1), full-length, fused to the GAL4 DNA binding domain (Arabidopsis thaliana) (UniProt Q9SIC9)
T1 sequence: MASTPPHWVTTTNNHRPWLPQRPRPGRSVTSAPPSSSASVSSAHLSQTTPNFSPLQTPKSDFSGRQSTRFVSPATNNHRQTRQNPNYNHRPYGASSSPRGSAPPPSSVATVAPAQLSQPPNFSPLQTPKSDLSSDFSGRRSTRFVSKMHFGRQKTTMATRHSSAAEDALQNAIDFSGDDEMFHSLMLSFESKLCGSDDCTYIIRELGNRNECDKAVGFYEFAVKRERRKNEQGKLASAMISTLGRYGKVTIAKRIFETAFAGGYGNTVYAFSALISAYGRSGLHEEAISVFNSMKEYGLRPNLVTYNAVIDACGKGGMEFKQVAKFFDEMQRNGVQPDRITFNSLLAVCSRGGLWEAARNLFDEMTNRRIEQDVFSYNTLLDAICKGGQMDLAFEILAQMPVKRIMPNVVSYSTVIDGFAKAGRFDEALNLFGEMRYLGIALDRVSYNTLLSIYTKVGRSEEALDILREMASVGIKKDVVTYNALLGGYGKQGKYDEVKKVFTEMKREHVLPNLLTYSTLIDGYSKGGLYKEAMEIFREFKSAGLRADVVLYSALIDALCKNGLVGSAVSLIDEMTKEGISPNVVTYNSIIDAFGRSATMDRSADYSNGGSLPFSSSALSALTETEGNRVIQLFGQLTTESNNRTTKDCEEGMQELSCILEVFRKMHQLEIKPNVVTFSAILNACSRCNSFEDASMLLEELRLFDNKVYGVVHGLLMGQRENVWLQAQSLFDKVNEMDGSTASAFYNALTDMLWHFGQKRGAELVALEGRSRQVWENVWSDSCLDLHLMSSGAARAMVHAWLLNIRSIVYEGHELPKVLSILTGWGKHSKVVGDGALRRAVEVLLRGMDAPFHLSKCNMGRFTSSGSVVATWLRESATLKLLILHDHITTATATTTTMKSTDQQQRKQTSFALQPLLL


Target: T1, GENOMES UNCOUPLED 1 (GUN1), full-length, fused to the GAL4 DNA binding domain (Arabidopsis thaliana)
Assay: two-hybrid; pair-wise; full-length GUN1 on the GAL4 BD (pGBKT7) as bait, full-length candidates on the GAL4 AD (pGADT7) as prey; yeast AH109; growth on TDO (SD/-Leu/-Trp/-His) and QDO (SD/-Leu/-Trp/-His/-Ade) with or without X-α-Gal; 5 d at 30 °C

Binder	binding
BAG7, full-length, fused to the GAL4 activation domain (protein, UniProt Q9LVA0 1-446) MTLFHRLDLIDPYTCTPLIVRETSIVEPSSLFLGFPSFIDEDIEDLFEFSSPNPLDLFETVTDLVKIKKSPSSCKYKVIRRRLEPEYPLKYLCDRVSDLESKFDRLVSPKSDRKYTLTKEIKGSGERKYKWEAEIQGPLERKYKLEAEIEGSGERKYRWTTEIKGGKKDEEGLKLAALKKEKAKAKAIAAAEAEKKKNKNKKKSYNWTTEVKSERENGEVSHTYIIKATTGGEKKKKHEEKEKKEKIETKSKKKEKTRVVVIEEEEEEDDESSEHGAIVLRKAFSRRNGAVRTKKGKNKEMPPEYAAVMIQRAFKAYLIRRSKSLRALRDLAIAKTKLKELRASFHNFSYRRLIARDGEERQKFSEKIIVLLLTVDAIEGVDVMVRGAKRSMVDELEAMLDVVDPQPQGKSLSMRRRTFDMPDSLIRKEIAEGVTQIVQMLETEEE	binds
EML3, full-length, fused to the GAL4 activation domain (protein, UniProt F4K2F0 1-397) MDYRPSDSSGTDDDLPPSHQGRYQRNARPTGNGRPSVLNSAPLSRVHNEMETQIHLIEQEAYSSILRAFKAQSDAITWEKESLITELRKELRVSDEEHRELLSRVNADEMIRRIREWRKANSLQSSVPQLVHDAPSPAVSGSRKKQKTSQSIASLAMGPPSPSLHPSMQPSSSALRRGGPPPGPKTKKPKTSMQYPSTGIAGRPQAGALTNEPGESGSYDPLVGRKVWTKWPDDNQYYEAVITDYNPVEGRHALVYDINSANETWEWVNLKEISPGDIRWEGEDPGISRKGGHPGQGRGTKTMARGGPASNAGGRGRGSMRMQQPKTQNGIGKKALGEIEILHTETLLKEVEKVFGSVNPNPAEVEKAKRVLRDHELALMDAIAKLEEISDGESGNI	binds
GGT1, full-length, fused to the GAL4 activation domain (protein, UniProt Q9LR30 1-481) MALKALDYDTLNENVKKCQYAVRGELYLRASELQKEGKKIIFTNVGNPHALGQKPLTFPRQVVALCQAPFLLDDPNVGMLFPADAIARAKHYLSLTSGGLGAYSDSRGLPGVRKEVAEFIQRRDGYPSDPELIFLTDGASKGVMQILNCVIRGNGDGILVPVPQYPLYSATISLLGGTLVPYYLDESENWGLDVANLRQSVAQARSQGITVRAMVIINPGNPTGQCLSEANIREILKFCYNEKLVLLGDEVYQQNIYQDERPFISSKKVLMEMGSPFSKEVQLVSFHTVSKGYWGECGQRGGYFEMTNLPPRVVEEIYKVASIALSPNVSAQIFMGLMVNPPKPGDISYDQFARESKGILESLRRRARLMTDGFNSCKNVVCNFTEGAMYSFPQIRLPTGALQAAKQAGKVPDVFYCLKLLEATGISTVPGSGFGQKEGVFHLRTTILPAEDEMPEIMDSFKKFNDEFMTQYDNNFGYSKM	binds

The remaining lines, values ahead:

binding	Binder
binds	GNAT5, full-length, fused to the GAL4 activation domain (protein, UniProt Q9LR91 1-319) MAALSISLAFSVDSLKPTQSTKFGFSSSSHRYPLLYSCKSHRSNLRFAFPPSSVSTATETGEENSKSTGNYAFLEESFRTGRFLSNDELEKLKTLEGFAYFQELESGSMWVRVMRHEEMDSTVHLLAESFGESMLLPSGYQSVLRFLIKQYLIERREVLPHAVTLVGFFRKKVDEFSDDGEEEAVMAGTVEVCLEKRGANASPPSPTPPKESPYICNMTVKEDLRRRGIGWHLLKASEELISQISPSKDVYLHCRMVDEAPFNMYKKAGYEVVKTDTVLVLLMLQRRKHLMRKKLLPLCTNPIVEMVGSDNELTSSANV
binds	KAC1, full-length, fused to the GAL4 activation domain (protein, UniProt Q9LX99 1-1273) MADQRSKTNRWNWEVSGFEPRKSSSNASFAESTGHRTTGPLLRRNSISTPSLPPKQAIASKVNGLKEKVKLAKEDYLELRQEATDLQEYSNAKLDRVTRYLGVLAEKSRKLDQFVLETEARISPLINEKKRLFNDLLTAKGNIKVFCRARPLFEDEGPSVIEFPGDCTICVNTSDDTLSNPKKDFEFDRVYGPHVGQAALFSDVQPFVQSALDGSNVSILSYGQTNAGKTYTMEGSNHDRGLYARCFEELFDLANSDSTSTSRFSFSLSVFEIYNEQIRDLLSETQSNLPNINMDLHESVIELGQEKVDNPLEFLGVLKSAFLNRGNYKSKFNVTHLIVSIHIYYSNTITGENIYSKLSLVDLAGSEGLIMENDSGDHVTDLLHVMNSISALGDVLSSLTSGKDSIPYDNSILTRVLADSLGGSSKTLMIVNICPSVQTLSETISCLNYAARARNTVPSLGNRDTIKKWRDVASDARKELLEKERENQNLKQEVVGLKKALKDANDQCVLLYSEVQRAWKVSFTLQSDLKSENIMLVDKHRLEKEQNSQLRNQIAQFLQLDQEQKLQMQQQDSAIQNLQAKITDLESQVSEAVRSDTTRTGDALQSQDIFSPIPKAVEGTTDSSSVTKKLEEELKKRDALIERLHEENEKLFDRLTERSMAVSTQVLSPSLRASPNIQPANVNRGEGYSAEAVALPSTPNKNNGAITLVKSGTDLVKTTPAGEYLTAALNDFDPEEYEGLAAIADGANKLLMLVLAAVIKAGASREHEILAEIRDSVFSFIRKMEPRRVMDTMLVSRVRILYIRSLLARSPELQTIRVSPVECFLEKPNTGRSKSTSRGSSPGRSPVRYLDTQIHGFKVNIKAERRNKLASVVSRMRGLEQDAGRQQVTGVKLREMQDEAKSFAIGNKALAALFVHTPAGELQRQIRLWLAENFEFLSVTSDDVSGGNGGQLELLSTAIMDGWMAGLGAAVPPHTDALGQLLSEYAKRVYTSQMQHMKDIAGTLAAEEAEDAGQVSKLRSALESVDHKRRKILQQMKSDAALLNLEEGSSPIPNPSTAAEDSRLASLISLDGILKQVKEITRQASVHVLSKSKKKALLESLDELTERMPSLLDIDHPCAQREIATAHQLVETIPEQEDTNILEQSHDRRPSLESISSGETDVSQWNVLQFNTGSSAPFIIKCGGNNNSELVIKADARVQEPKGGEIVRVVPRPSVLVNMSLEEMKQMFVQLPEALSLLALARTADGTRARYSRLYKTLAMKVPSLKDLVSELE
binds	STO, full-length, fused to the GAL4 activation domain (protein, UniProt Q96288 1-248) MKIQCDVCEKAPATVICCADEAALCPQCDIEIHAANKLASKHQRLHLNSLSTKFPRCDICQEKAAFIFCVEDRALLCRDCDESIHVANSRSANHQRFLATGIKVALTSTICSKEIEKNQPEPSNNQQKANQIPAKSTSQQQQQPSSATPLPWAVDDFFHFSDIESTDKKGQLDLGAGELDWFSDMGFFGDQINDKALPAAEVPELSVSHLGHVHSYKPMKSNVSHKKPRFETRYDDDDEEHFIVPDLG
